According to patent publication US20080207449A1:
These are yes or no findings as the source states them, for the method shown. Binding seen in cells or lysates may run through a third protein. Some results given as binding are weak or reduced against the parent protein; the word gives no strength. Tags and fused reporters may be left off the sequences shown.

The chains behind the UniProt entries cited, without tags or fusion partners. Where a name states a change or a piece, a line headed by the entry shows the natural chain unless it says otherwise. A line that says so, or that is headed by a name, gives the form on record, which may keep a tag or linker.
HA-tagged wild-type AtE2Fb, in vitro translated (Q9FV71, form named): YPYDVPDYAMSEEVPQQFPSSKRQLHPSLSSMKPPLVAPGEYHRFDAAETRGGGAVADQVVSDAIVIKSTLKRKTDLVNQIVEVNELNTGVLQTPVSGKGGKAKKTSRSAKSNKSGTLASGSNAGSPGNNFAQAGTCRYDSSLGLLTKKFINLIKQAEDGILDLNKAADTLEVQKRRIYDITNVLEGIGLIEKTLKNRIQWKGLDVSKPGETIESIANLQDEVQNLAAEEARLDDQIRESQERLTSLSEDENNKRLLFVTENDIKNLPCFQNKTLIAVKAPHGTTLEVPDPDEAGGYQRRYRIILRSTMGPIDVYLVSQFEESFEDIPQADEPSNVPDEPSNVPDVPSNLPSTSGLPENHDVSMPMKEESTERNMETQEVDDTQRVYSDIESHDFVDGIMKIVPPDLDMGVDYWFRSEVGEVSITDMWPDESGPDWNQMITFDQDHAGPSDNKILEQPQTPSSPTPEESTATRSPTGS

B1: c-myc-tagged AtDPa 121-292, in vitro translated (protein)
chain: EQKLISEEDLEQKLISEEDLIIARDKKEIRWKGLPITCKKDVEEVKMDRNKVMSSVQKKAAFLKELREKVSSLESLMSRNQEMVVKTQGPAEGFTLPFILLETNPHAVVEIEISEDMQLVHLDFNSTPFSVHDDAYILKLMQEQKQEQNRVSSSSSTHHQSQHSSAHSSSSSCIASGTSGPVCWNSGSIDTR
B2: c-myc-tagged AtDPb 182-263, in vitro translated (protein)
chain: EQKLISEEDLEQKLISEEDLGLPRTSLSDIEELKNERLSLRNRIEKKTAYSQELEEQYVGLQNLIQRNEHLYSSGNAPSGGVALPFILVQTRPHATVEVEI

Target: HA-tagged wild-type AtE2Fb, in vitro translated (Arabidopsis) (UniProt Q9FV71)
Assay: co-immunoprecipitation (anti-c-myc) of in vitro co-translated tagged proteins, SDS-PAGE autoradiography

binding | Binder
binds | B1
binds | B2
